Test results from US20060276478A1, “Pyrazolopyrimidines” (priority 2003, published 2006).
Some of these results come from one statement about several compounds together.

Columns and labels:
Botrytis cinerea = test: Botrytis test (bean)/protective; type: in vivo; settings: bean plants, protective spray, application rate 500 g/ha, evaluation 2 days after inoculation; 100% = no infection
Venturia inaequalis = test: Venturia test (apple)/protective; type: in vivo; settings: apple plants, protective spray, application rate 100 g/ha, evaluation 10 days after inoculation; 100% = no infection

CC(Nc1c(-c2c(F)cccc2Cl)c(Cl)nc2c(C(N)=O)cnn12)C(C)(C)C (centres unmarked) [Example 1, 3-amido-5-chloro-6-(2-chloro-6-fluorophenyl)-7-(3,3-dimethylbut-2-ylamino)pyrazolo[1,5-a]pyrimidine]
efficacy (Botrytis cinerea): more than 90% | efficacy (Venturia inaequalis): more than 90%
